Reference: PubChem BioAssay AID686943 (Drosophila RNAi Screening Center, 2013)
In all, the deposit lists about 23,000 reagents; this is a random part of those with a known target gene and a result. 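Extra replicates exist only for a retested subset of genes; insulin dose and duration not given; both raised and lowered dpERK matter.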 Names joined by + are all predicted targets of the reagent. Reagent sequences are not shown. Not given: the amount of reagent, the time to read-out.

Aim: 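Fly genes whose loss alters ERK activation after insulin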 (primary screen)
Cell system: Drosophila S2R+ haemocyte-like cells expressing YFP-tagged ERK (Rolled)
Knock-down reagent: long dsRNA against Drosophila genes
Treatment: insulin stimulation versus unstimulated cells; dose and duration not given
Read-out: 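Per-plate z-scores of phospho-ERK immunostaining normalised to YFP-tagged ERK, measured with and without insulin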
Scale: replicate 1, z-score of dpERK with insulin and replicate 2, z-score of dpERK with insulin: higher = more active ERK per ERK-YFP after insulin; replicate 1, z-score of dpERK under basal conditions: higher = more basal active ERK per ERK-YFP; replicate 1, z-score of ERK-YFP with insulin: higher = more YFP-tagged ERK signal

The opening 3 entries as a preview:
Target gene,dsRNA,"replicate 1, z-score of dpERK with insulin","replicate 2, z-score of dpERK with insulin","replicate 1, z-score of dpERK under basal conditions","replicate 1, z-score of ERK-YFP with insulin"
CG14312,DRSC14791,0.13,0.05,0.64,-0.24
Taf2,DRSC11298,1.74,1.21,-1.39,1.03
CG34284,DRSC14773,-0.94,0.01,-0.45,-0.52

The list itself, from the first entry:
Target gene,dsRNA,"replicate 1, z-score of dpERK with insulin","replicate 2, z-score of dpERK with insulin","replicate 1, z-score of dpERK under basal conditions","replicate 1, z-score of ERK-YFP with insulin"
CG14312,DRSC14791,0.13,0.05,0.64,-0.24
Taf2,DRSC11298,1.74,1.21,-1.39,1.03
CG34284,DRSC14773,-0.94,0.01,-0.45,-0.52
Cyp4e3,DRSC03306,0.68,0.09,-0.42,-0.09
CG5909,DRSC15914,0.45,0.04,-0.41,0.02
mTerf3,DRSC11759,0.75,0.2,0.64,0.19
Zdhhc8,DRSC18044,-4.66,-4.02,-2.39,2.97
Zdhhc8,DRSC18122,0.93,2,0.71,0.09
G6P,DRSC00414,-0.51,-0.11,0.94,1
CG9021,DRSC03128,0.65,0.15,0.29,-0.28
CG43316,DRSC06297,-0.06,0.22,-0.07,0.44
bin,DRSC10332,-0.23,-0.14,0.48,0.42
CG42284,DRSC22094,0.57,0.52,0.5,-1.06
CG42284,DRSC22342,-0.49,-0.16,-0.21,0.81
CG6283,DRSC16009,-1.48,-0.08,-0.28,-0.29
spo,DRSC11127,0.21,0.08,0.02,-0.32
CG17959,DRSC18142,-0.09,-0.26,-0.23,-0.67
Nep7,DRSC15830,-0.36,-0.06,-0.36,0
CG42505 + CG42504 + CG31358,DRSC15235,1.7,0.14,-0.18,0.69
CG42505 + CG42504 + CG31358,DRSC15308,2.15,0.7,0.82,0.14
CG42505 + CG42504 + CG31358,DRSC15309,0.2,0.42,-0.5,0.94
asRNA:CR43468 + Lfg,DRSC06853,0.96,-0.53,-0.36,-0.46
Cnx14D,DRSC20214,-0.08,0.14,0.45,0.71
CG14624,DRSC18634,1.87,-0.33,0.53,-1.3
CG14402,DRSC02386,-0.48,0.23,1.45,1.01
CG9896,DRSC03962,-0.1,1.11,-1.82,0.35
CG9896,DRSC04594,-0.46,-0.08,1.42,0.3
dtr,DRSC01847,0.09,0.48,0.37,0.21
CG13392,DRSC02262,-0.19,0.43,0.41,1.76
CG13086,DRSC02190,-0.49,-1.31,-0.41,-0.92
Ahcy,DRSC19329,0,0.29,-0.35,-0.9
CG30376,DRSC05086,0.51,0.09,-0.38,0.02
RhoGAP68F,DRSC10717,-1.16,0.02,-0.28,0.06
E(spl)mbeta-HLH,DRSC16697,-0.01,0.07,-0.05,0.34
eIF3f2,DRSC04903,-0.33,-0.93,0.18,-0.78
msl-2,DRSC00829,1.22,2.47,0.16,-0.05
Nup133,DRSC16150,0.23,0.15,1.26,-2.76
CG17544,DRSC02624,0.6,0.16,-0.85,0.32
CG13192,DRSC06317,0.42,0.42,1.19,-0.31
CG5614,DRSC15845,1.16,0.28,-2.57,0.22
Cubn2,DRSC10561,0.42,0.74,-0.01,0.21
Cubn2,DRSC22044,-0.44,-0.45,0.19,0.47
HSPBAP1,DRSC14567,-0.6,0.01,1.41,0.39
CG7650,DRSC10898,-0.21,0.56,1.34,0.1
Ranbp16,DRSC20160,-1.21,-0.11,0,1.34
Spag1,DRSC15331,0.48,1.02,0.2,0.19
CG13083,DRSC02187,-0.14,-0.16,0.89,0.34
CG8001,DRSC08611,0.08,0.19,1.56,0.3
Isha,DRSC04456,-0.04,0.27,-0.78,-0.61
LysD + LysC (retired record),DRSC08674,0.33,0.47,0.89,0.1
LysD + LysC (retired record),DRSC22743,0.28,-0.04,-0.02,-2.23
CG5567,DRSC10517,0.84,0.49,1.23,0.16
DAAM,DRSC18479,-0.15,0.18,0.2,0.08
Cchl,DRSC15949,0.87,-0.12,0.32,-0.53
CG30467,DRSC07097,-0.05,0.99,0.96,0.31
pds5,DRSC06670,0.87,0.3,0.7,0.83
homer,DRSC03547,-0.41,-0.88,-0.44,-1
CG12951,DRSC14579,-0.12,0.09,0.89,0.2
Rlb1,DRSC16826,0.4,0.07,-0.55,-0.12
Cyp40,DRSC10980,0.13,-0.06,0.25,0.21
CG7016,DRSC16174,0.79,0.28,0.7,0.02
CG17134,DRSC02583,0.81,0.29,-0.43,-0.79
fs(1)M3,DRSC18381,0.17,-0.95,0.67,0.27
CG8508,DRSC16436,0.64,-0.23,0.55,-0.11
Fmo-2,DRSC04983,-0.21,-0.08,-0.04,-0.71
Ace,DRSC12959,0.55,0.09,0.05,0.07
Ace,DRSC14100,-0.09,-0.08,-0.53,0.3
CG13108,DRSC02206,0.64,0.96,0.92,-0.63
Polr3G,DRSC21511,0.25,0.56,-0.65,-0.13
CG13053,DRSC09934,0.76,-0.19,-0.63,-1.34
CG6073,DRSC15962,0.31,0.39,0.57,0.46
CG6073,DRSC22742,0.51,0.19,-0.21,-1.35
SK,DRSC17387,1.04,-0.09,-0.58,0.18
SK,DRSC17751,1.69,0.54,-0.16,-0.31
SK,DRSC17887,-1.58,-0.13,0.42,0.07
SK,DRSC17888,-0.95,-1.06,-0.23,1.96
SK,DRSC18353,-0.64,-0.38,-1.38,0.05
SK,DRSC21840,0.11,-0.47,1.19,-2.5
